Source: patent US10980754B2, “Anti-fungal compounds” (SAINT LOUIS UNIVERSITY, priority 2016, dated 2021)

These compounds were tested on C. neoformans var grubii, KN99 (assay: Inhibition of C. neoformans growth, limiting dilution assay (MIC)). Conditions: Table 3; CC50/MIC.
Type: cell-based
Procedure: Strains and media. All inhibition assays were performed with C. neoformans var grubii, KN99 (serotype A, MATα; kindly provided by Jennifer Lodge). Two clinical strains of C. neoformans var grubii, serotype A, were kindly provided by Tamara Doering and Andre Spec. […] Each assay was done in triplicate and all values are the average of two or more independent assays. The data are presented as the average cell density as a percent of DMSO-only treated cells. […] However, these conditions are unlike conditions encountered by C. neoformans in mammalian infections, where nutrients are limited, and the pH and temperature are higher than in YPD media. The cryptococcal stress response to low glucose and high pH and temperature may alter its susceptibility to the inhibitors. It is also possible that the enzymes targeted by the inhibitors may render the cell temperature sensitive when inhibited. To better mimic growth in mammals, growth was tested without shaking in nutrient-limited media at 35° C. […] However, as the nutrient-limited media and higher temperature is more similar to mammalian cell growth conditions, these conditions were used for all further assays. […] All values were measured at least two times in independent experiments and the average MIC is reported.
For O=C(Sc1cccccc1=O)c1ccccc1 [Compound 364], the TI was 230. O=c1cccccc1S [Compound 363] was tested, and the TI was 105. Cc1ccc(CSc2cccccc2=O)cc1 [Compound 365] showed a TI of roughly 2.

Same assay, conditions: therapeutic index, CC50/MIC
Compound COC(=O)c1cc(O)c(=O)c(OC)cc1C [Compound 273] has a TI of 2. Compound Cc1ccccc1C(=O)Oc1cccccc1=O [Compound 281] has a TI of 2. For CC(C)c1cccc(=O)c(O)c1 [Compound 47, β-thujaplicin], the TI was 3. Work on Cc1cc(O)c(=O)c(O)cc1C(=O)c1ccc(-c2ccccc2)cc1 [Compound 118] yielded a TI of 1. Work on COC(=O)c1c2c(cc(O)c(=O)c1O)COC2=O [Compound 280, Methyl 5,7-dihydroxy-3,6-dioxo-3,6-dihydro-1H-cyclohepta[c]furan-4-carboxylate] yielded a TI of 1. Cc1ccc(S(=O)(=O)Oc2cccccc2=O)cc1 [Compound 61] was tested, and the TI was less than 1. CC(=O)NC(CCc1ccc(Cl)c(Cl)c1)c1cccc(O)c(=O)c1 (stereo not shown) [Compound 55] showed a TI of less than 1. Cc1cc(O)c(=O)c(O)cc1C(=O)C1CC1 [Compound 310, 4-(cyclopropanecarbonyl)-2,7-dihydroxy-5-methylcyclohepta-2,4,6-trien-1-one] gave a TI of 3. For COc1ccc(C(=O)c2cc(O)c(=O)c(O)cc2C)cc1 [Compound 312, 4-(4-methoxybenzoyl)-2,7-dihydroxy-5-methylcyclohepta-2,4,6-trien-1-one], the TI was 1. O=C(Oc1cccccc1=O)c1ccc(Cl)cc1 [Compound 63] gave a TI of 6. O=c1cccccc1O [Compound 53, Tropolone] was tested, and the TI was 4. Cc1cc(O)c(=O)c(O)cc1C(=O)c1ccc([N+](=O)[O-])cc1 [Compound 313, 2,7-dihydroxy-4-methyl-5-(4-nitrobenzoyl)cyclohepta-2,4,6-trien-1-one] showed a TI of 2. Cc1ccc(O)c(=O)c(O)c1 [Compound 210] gave a TI of 5. COC(=O)c1c(C)cc(O)c(=O)c(O)c1C(=O)OC [Compound 106] showed a TI of less than 1. Compound Cc1cc(O)c(=O)c(O)cc1C(=O)c1ccccc1 [Compound 111] has a TI of 1. O=C(Nc1ccc(O)c(=O)cc1)c1ccccc1 [Compound 52] was tested, and the TI was 2. Cc1cc(O)c(=O)c(O)cc1-c1ccc(Br)cc1 [Compound 114] showed a TI of 1. In the case of Cc1cc(O)c(=O)c(O)cc1C(=O)c1ccc2ccccc2c1 [Compound 315, 4-(2-naphthoyl)-2,7-dihydroxy-5-methylcyclohepta-2,4,6-trien-1-one], the TI is reported as 1. In the case of COC(=O)c1c(CCl)cc(O)c(=O)c(O)c1C(=O)OC [Compound 107], the TI is reported as 2. Cc1cc(O)c(=O)c(O)cc1-c1ccc(C(F)(F)F)cc1 [Compound 145] was tested, and the TI was 1. In the case of CC(=O)c1cc(O)c(=O)c(O)cc1C [Compound 110], the TI is reported as less than 1. In the case of COc1cc(C)c(C(=O)c2ccccc2)c(C(=O)c2ccccc2)c(O)c1=O [Compound 317, (7-hydroxy-5-methoxy-3-methyl-6-oxocyclohepta-2,4,7-triene-1,2-diyl) bis (phenyl methanone)], the TI is reported as 2. In the case of CC(C)c1ccc(O)c(=O)cc1 [Compound 48, γ-thujaplicin], the TI is reported as 5. Compound O=C(Oc1cccccc1=O)c1ccccc1Cl [Compound 282] has a TI of 3. Cc1cc(O)c(=O)c(O)cc1C(=O)c1cccs1 [Compound 308, 4-(thiopene-2-carbonyl)-2,7-dihydroxy-5-methylcyclohepta-2,4,6-trien-1-one] gave a TI of 2. O=Nc1ccc(O)c(=O)cc1 [Compound 50, 5-nitrosotropolone] gave a TI of 1. With Cc1cc(O)c(=O)c(O)cc1C(=O)O [Compound 319, 4,6-dihydroxy-2-methyl-5-oxocyclohepta-1,3,6-triene-1-carboxylic Acid] the TI was 2. Compound O=c1cccccc1Cl [Compound 57, 2-chlorotropone] has a TI of 1. With Cc1cc(O)c(=O)c(O)cc1C(=O)c1ccco1 [Compound 309, 4-(furan-2-carbonyl)-2,7-dihydroxy-5-methylcyclohepta-2,4,6-trien-1-one] the TI was 1. With Cc1cc(O)c(=O)c(O)cc1C(=O)C1CCCCC1 [Compound 120] the TI was 2. Compound C=C(C)C1CCc2c(c(C)cc(O)c(=O)c2O)C1 (stereo not shown) [Compound 56, Manicol] has a TI of less than 1. O=c1c(O)ccccc1O [Compound 172, 7-Hydroxytropolone] gave a TI of 4. O=C(Oc1cccccc1=O)c1ccc([N+](=O)[O-])cc1 [Compound 51, tropolone p-nitrobenzoate] showed a TI of 4. O=c1c(O)ccc(-c2ccccc2)cc1O [Compound 262, 2,7-dihydroxy-4-phenylcyclohepta-2,4,6-trien-1-one] gave a TI of 5. With CC(C)c1ccc(O)c(=O)c(O)c1 [Compound 46, β-thujaplicinol] the TI was 3. For O=c1c(O)ccc(-c2ccc(-c3ccccc3)cc2)cc1O [Compound 264, 4-([1,1′-biphenyl]-4-yl)-2,7-dihydroxycyclohepta-2,4,6-trien-1-one], the TI was less than 1. With COCc1cc(O)c(=O)c(O)c(C(=O)OC)c1C(=O)OC [Compound 108] the TI was 2. For Cc1cc(O)c(=O)c(O)cc1C(=O)C(C)C [Compound 143], the TI was 2. In the case of Cc1cc(O)c(=O)c(O)cc1-c1cccc2ccccc12 [Compound 146], the TI is reported as 1. Work on CC(C)=CCc1ccc(=O)c(O)cc1C(C)C [Compound 49, Nootkatin] yielded a TI of 1. Cc1cc(O)c(=O)c(O)cc1C(=O)c1ccccc1O [Compound 311, 4-(2-hydroxybenzoyl)-2,7-dihydroxy-5-methylcyclohepta-2,4,6-trien-1-one] was tested, and the TI was 1. With Cc1cc(O)c(=O)c(O)cc1-c1ccc([N+](=O)[O-])cc1 [Compound 112] the TI was 1. Work on Cc1ccc(C(=O)Nc2cccccc2=O)cc1 [Compound 60] yielded a TI of 2.
